From patent US11040054B2, “Estrogen sensing through GPER1 regulates normal and malignant liver growth” (The Brigham and Women's Hospital, Inc., priority 2016, dated 2021)
At least one compound was matched to its structure with a doubt left.

Tested on: zebrafish larvae liver
Assay: Larval liver size analysis (ISH for fabp10a, fabp10a:GFP imaging) at 120 hpf
Format: in vivo
Method: Zebrafish larvae were exposed to chemicals, dissolved in 0.1% (v/v) dimethylsulfoxide (DMSO), at specified doses for 5 hrs. from 110-115 hours post fertilization (hpf) and analyzed at 120 hpf (unless otherwise specified). Adults were treated for 5-7 hrs. per exposure with frequency as described.
Larvae were fixed with paraformaldehyde and in situ hybridization (ISH) performed according to standard protocols.^16 gper1 probe was generously gifted by David Volz.^17
ISH images were obtained by brightfield microscopy, and fabp10a:GFP reporter larvae were imaged using fluorescence microscopy. 3D imaging of fabp10a:GFP fish was performed with a Zeiss LightsheetZ.1. […] were fixed and paraffin embedded. Tissues were sectioned (5 μm) and stained with hematoxylin & eosin (H&E). […] Immunohistochemistry (IHC) (using antibodies listed in Table 4) and terminal deoxynucleotidyl transferase dUTP nick-end labeling (TUNEL) staining were performed using established protocols.^16 GPER1 staining was scored by a pathologist based on the mean amount of cytoplasmic reactivity in hepatic cells: 0+, minimal/no staining; 1+, faint/mild staining; 2+, moderate staining; 3+, strong staining.

SMILES | effect on enlarged liver phenotype induced by either E2 or G-1 (co-exposure with E2 or G-1, 120 hpf) | effect on E2-induced enhancement in liver size (WT larvae, co-exposure with E2 (or knockdown plus E2), 120 hpf)
CO[C@H]1C[C@@H]2CC[C@@H](C)[C@@](O)(O2)C(=O)C(=O)N2CCCC[C@H]2C(=O)O[C@H]([C@H](C)C[C@@H]2CC[C@@H](O)[C@H](OC)C2)CC(=O)[C@H](C)/C=C(\C)[C@@H](O)[C@@H](OC)C(=O)[C@H](C)C[C@H](C)/C=C/C=C/C=C/1C [rapamycin] | diminished the enlarged liver phenotype | 
O=c1cc(N2CCOCC2)oc2c(-c3ccccc3)cccc12 [LY292002] |  | diminished this effect
